# In all, about 33,000 sequences were measured (“E-score (-0.5 to 0.5)”: median about -8e-05, highest 2% from about 0.23 on). This is one part of the list.
# Molecular target: T1, Nrg2 (UniProt P38082)
# T1 sequence: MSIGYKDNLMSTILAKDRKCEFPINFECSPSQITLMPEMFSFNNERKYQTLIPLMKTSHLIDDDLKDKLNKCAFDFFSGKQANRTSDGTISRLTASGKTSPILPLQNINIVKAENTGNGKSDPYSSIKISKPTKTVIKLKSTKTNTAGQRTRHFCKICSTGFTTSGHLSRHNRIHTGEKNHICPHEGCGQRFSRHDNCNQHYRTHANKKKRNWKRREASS
# Assay: PBM E-score (8-mer binding enrichment) (E-score (-0.5 to 0.5)); higher = stronger / more preferred TF binding
# Conditions: protein concentration: 100 nM; construct: GST-full length
# Description: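 Universal 'all 10-mer' protein binding microarrays (Agilent AMADID 015681) probed with GST-tagged S. cerevisiae TFs (full-length or DBD) made by in vitro transcription/translation (PURExpress), about 100-200 nM. Bound TF was detected with fluorescent anti-GST. Each ungapped 8-mer (which stands for itself and its reverse complement) is scored by the PBM enrichment score (E-score), a modified Wilcoxon-Mann-Whitney statistic from -0.5 to +0.5, computed with the Universal PBM Analysis Suite. Scale: above 0.35 generally sequence-specific binding.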
row,Sequence,PBM E-score
1,ATCTGCAA,-0.094
2,ACTCAGCT,0.049
3,CCGACTGC,-0.0453
4,AGGAACGA,-0.126
5,ACTCTCGC,0.0592
6,CAGACTTC,-0.18
7,AGGAGGTA,-0.224
8,AGCACGCC,-0.0245
9,GCAGACAA,0.203
10,GGTCCAAA,-0.129
11,ATTTTAGA,-0.0512
12,AGACCCAC,0.0598
13,ATGGGTTA,0.0918
14,GGCCCGAA,0.16
15,AGAGAGAT,-0.0221
16,CCGCTTCA,-0.0401
17,ATGTACAT,0.159
18,TTGGACAA,0.0354
19,CGTACCAG,-0.133
20,AGCCGTCA,-0.108
21,AGCCACGG,-0.127
22,AACCATGG,-0.0776
23,AGATCGTA,-0.148
24,ATGGTAAT,0.018
25,CAGTGCAG,0.0174

row,Sequence,PBM E-score
1,CGTAGCCA,-0.0815
2,ACGCACGC,0.162
3,CTAGGTGA,-0.0714
4,GCGCTTGA,0.187
5,AAACCTGA,0.0789
6,ACTGAAGG,-0.0672
7,ATATTACA,0.099
8,GACATCCC,0.145
9,AGTCTAGC,-0.157
10,AATATAAA,0.233
11,GAATCGTC,0.133
12,GGCAGAAC,0.088
13,CGGTTGGC,0.0567
14,CTTGGTAA,-0.0811
15,ATTCGAGG,-0.0167
16,CTCAACAA,0.225
17,GATCCTAA,-0.0855
18,ATCTTTGG,-0.0421
19,CCAGAGGG,-0.114
20,AACAGTGT,-0.00545
21,AGCCACAT,0.0809
22,CGCGACAA,0.308
23,CCCATTTA,0.0205
24,CGACGATC,0.146
25,CACAAGCC,-0.113

row,Sequence,PBM E-score
1,ACGTCACT,-0.0195
2,ATGCCCGA,-0.0666
3,AGCATAGA,-0.0952
4,GATTTGGC,-0.0298
5,CTCACTTC,-0.191
6,ATCGCAAT,0.224
7,CCTCTCGC,0.0486
8,TAATATTA,0.322
9,CGGCGCAA,0.119
10,CCACATAA,-0.012
11,GCGCGAGA,0.184
12,CTTCTTTC,-0.18
13,TAGACCTA,-0.19
14,CGTCAAGA,-0.137
15,CTCGGATA,0.116
16,GCTTAAGC,-0.088
17,CGTAAACC,-0.131
18,TGAGGTAA,0.00276
19,ATGGGGTC,0.299
20,CAATAATC,0.112
21,AAAGGAGG,-0.252
22,CGAGGGCC,-0.0174
23,ATGATCAT,0.0338
24,ACGAACGT,0.0187
25,CATAGACG,0.0918

# Taken from the entries so far (five entries):
row,Sequence,PBM E-score
16,CCGCTTCA,-0.0401
17,ATGTACAT,0.159
18,TTGGACAA,0.0354
19,CGTACCAG,-0.133
20,AGCCGTCA,-0.108

# Remaining list, next part

row,Sequence,PBM E-score
1,AGGCCGGA,-0.175
2,GATACACC,0.0324
3,CGGAAACA,-0.151
4,GAAGTCTC,-0.146
5,CATGTTAA,0.0941
6,GAGGAATA,0.0393
7,ATTAGGCC,0.0427
8,ATCCCGAG,0.0466
9,GGGCGACA,-0.132
10,AATCATCG,0.046
11,GCCGCGAC,-0.0801
12,TAGAATGA,0.0589
13,GTACTACA,0.191
14,ACTTTTTG,0.038
15,ACCAGTCC,-0.0442
16,AGCTACTA,0.0519
17,CACTTGAC,-0.0154
18,GACTTATC,-0.223
19,AAGAGCCG,-0.151
20,GGGCACGA,-0.0933
21,CGGTCCAC,-0.222
22,GCCCCGGC,-0.258
23,AGAGACGC,-0.00585
24,CGGTTGAA,0.101
25,GCTATGCA,-0.0732

row,Sequence,PBM E-score
1,AGTGGAGG,0.0258
2,ACATGCGG,-0.058
3,ATCGGAGG,-0.25
4,ATTCTCAC,0.0944
5,ACTGTAAT,0.0526
6,ACGCCGTG,0.0109
7,GTACAGGA,-0.0267
8,ATCTACTC,0.0316
9,CTAGAGCA,0.0125
10,TAACGTTA,-0.0867
11,ATTGATCC,-0.024
12,AGAACTAG,0.0365
13,TCGCGCGA,0.138
14,AGATCCAA,0.0871
15,CGAATACC,0.0757
16,CAAGTGCG,0.0578
17,GGGTCGAA,-0.0102
18,AGATCTCC,0.00029
19,AGGCCGGG,-0.266
20,ATACCGGA,-0.222
21,CGCAGAAG,0.132
22,GCCTTGTA,-0.048
23,CTATCGCA,0.122
24,CGTAGGTA,-0.0076
25,CCCAATCA,0.144

row,Sequence,PBM E-score
1,ATGTGACA,0.115
2,ATAGATTG,0.0917
3,CGCCAAAG,0.0237
4,GAGCCACA,-0.169
5,ACGACTGC,-0.173
6,AAACTCAC,0.023
7,CTGTGCTA,0.0335
8,CCCTCGCC,-0.0464
9,CATGCCTA,-0.0738
10,TACAAACA,0.243
11,AACCCTGA,0.385
12,TTGCCAAA,0.0604
13,CACGCGCG,0.0259
14,CTTATGCC,0.0717
15,CCGGCACC,0.134
16,GCAAGGGC,-0.107
17,ATCGATTG,0.0761
18,AACGCCAG,0.123
19,ACCTGTAG,-0.125
20,CATCCCGG,-0.0163
21,ATAAGAGG,0.0354
22,ACAAGAAG,0.176
23,ATGTGCCG,-0.197
24,GTGGCAGA,-0.276
25,CGAAATTA,0.104

row,Sequence,PBM E-score
1,CCGCTTAC,-0.227
2,GAACATGA,0.0272
3,CTACCTGC,0.0377
4,CACGACCA,-0.0449
5,ATCCGAGA,0.163
6,AGGTATAG,0.0175
7,AGCCATCC,0.0327
8,CTGAACAC,0.186
9,GCGTAGGA,0.00188
10,CACAGCCA,-0.0609
11,AGCTGGGA,-0.0126
12,CGCCCAGC,0.156
13,GAGTACCC,0.0677
14,AGGCCGTC,-0.0983
15,ATATTAAG,0.0738
16,GCAACGCC,-0.0162
17,AAATGACC,0.0482
18,CACTGGTC,-0.201
19,AACGGCCA,-0.0704
20,AAAACTTT,0.0137
21,ACACGCGT,0.00123
22,CGGTTACC,-0.076

# Source: the supplement of paper PMC3334620
